{"source": "paper PMC12040169", "about": "(PLOS Biology, 2025)", "note": "This is one part of the list.", "data": [{"tested_on": "T1, CTL2-GFP (C. trachomatis L2/434/Bu, GFP-expressing)", "T1 construct": "L2/434/Bu, GFP-expressing", "parameters": "species or system HeLa; Intracellular C. trachomatis growth in HeLa cells, bulk GFP fluorescence relative to DMSO", "details": "bulk GFP, single well; 28.5 h, 10 µM; inhibitor", "units": {"% of control remaining": "%"}, "values": [{"smiles": "Clc1cc(NCCc2c[nH]c3ccccc23)n2nccc2n1", "note": "[CBK037218]", "% of control remaining": 167.237}, {"smiles": "O=C(NCC1CCCO1)C1CCCN(C(=O)c2cc(-c3ccccn3)[nH]n2)C1", "note": "(stereo not drawn) [CBK210893]", "% of control remaining": 102.239}, {"smiles": "Cc1cnc(CNC(=O)N2CCN(c3ccc(F)cc3)CC2)cn1", "note": "[CBK156392]", "% of control remaining": 164.776}, {"smiles": "COCC1(C(=O)N2CC(=O)N(c3ccc(C)cc3)CC2C)CCC1", "note": "(stereo not drawn) [CBK307606]", "% of control remaining": 101.785}, {"smiles": "CN(C)CCCN(Cc1cnn(-c2ccccc2)c1)Cc1ccco1", "note": "[CBK283040]", "% of control remaining": 90.6764}, {"smiles": "CC(NC(=O)c1cnc2n(c1=O)CCS2)c1ccccc1", "note": "(stereo not drawn) [CBK287372]", "% of control remaining": 95.0225}, {"smiles": "COC(=O)CCn1c(-c2cccnc2C)cc2cccnc21", "note": "[CBK282593]", "% of control remaining": 90.9167}, {"smiles": "O=c1oc2ccccc2n1Cc1coc(-c2ccccc2)n1", "note": "[CBK296649]", "% of control remaining": 109.3}, {"smiles": "O=c1c(I)coc2ccc(Cl)cc12", "note": "[CBK005364]", "% of control remaining": 99.559}, {"smiles": "CCc1nn2c(=O)cc(CN3C(=O)COc4cccnc43)nc2s1", "note": "[CBK306599]", "% of control remaining": 109.548}, {"smiles": "O=C(Nc1ccc(F)cc1)c1ccccc1NS(=O)(=O)c1cc(Br)c(Cl)s1", "note": "[CBK045405]", "% of control remaining": 61.4357}, {"smiles": "Cc1cc(C)nc(N/C(=N\\C(=S)Nc2cccc(Cl)c2C)NCc2cccnc2)n1", "note": "[CBK267254]", "% of control remaining": 104.613}, {"smiles": "COC(=O)[C@H]1O[C@H](c2ccccc2)[C@@H]2C(=O)N(C)C(=O)[C@@H]21", "note": "[CBK009058]", "% of control remaining": 134.684}, {"smiles": "CCCN(CCC)CCc1cccc2c1CCN2C(=O)c1cc2ccccc2s1", "note": "[CBK017871C]", "% of control remaining": 8.849}, {"smiles": "COCc1cn([C@H]2CO[C@H]3[C@@H]2OC[C@@H]3NC(=O)c2ccc(OC)cc2)nn1", "note": "[CBK289494]", "% of control remaining": 117.461}, {"smiles": "O=C(c1ccc(F)cc1)N1CCC(c2cc3cnccc3[nH]2)CC1", "note": "[CBK283445]", "% of control remaining": 125.099}, {"smiles": "COc1ccc(C(c2ccccc2C)N(C)C(=O)C2CCN(C(C)=O)CC2)cn1", "note": "(stereo not drawn) [CBK060490]", "% of control remaining": 111.307}, {"smiles": "O=C(Nc1ccc(Cl)cc1)N1CCC(n2c(=O)[nH]c3ccccc32)CC1", "note": "[CBK149850]", "% of control remaining": 131.073}, {"smiles": "Cc1cc(COC(=O)c2nn(-c3ccc(F)cc3)c3c2CCCC3)on1", "note": "[CBK295305]", "% of control remaining": 131.539}, {"smiles": "COc1ccnc(C(=O)N(Cc2ccccn2)CC2CCCO2)c1", "note": "(stereo not drawn) [CBK307303]", "% of control remaining": 134.038}, {"smiles": "O=C(O)c1ccc(COc2ccc3ccccc3c2/C=C2/NC(=O)N(c3ccccc3)C2=O)cc1", "note": "[CBK265124]", "% of control remaining": 101.905}, {"smiles": "CCOC(=O)N1CCN(S(=O)(=O)c2cc(C(=O)O)c(Cl)cc2Cl)CC1", "note": "[CBK296975]", "% of control remaining": 146.617}, {"smiles": "CCOc1ccccc1-c1ccccc1NC(=O)c1ccc2c(c1)ncn2C1CC1", "note": "[CBK285808]", "% of control remaining": 95.8836}, {"smiles": "COc1ccc(-c2csc(NC(=O)NS(=O)(=O)c3ccc(C)cc3)n2)cc1", "note": "[CBK296117]", "% of control remaining": 133.491}, {"smiles": "O=C(N/N=C/c1ccccc1)c1ccccn1", "note": "[CBK261640]", "% of control remaining": 124.359}, {"smiles": "OC1(c2ccc(F)cc2)COC2(CCNCC2)C1", "note": "(stereo not drawn) [CBK284214]", "% of control remaining": 138.296}, {"smiles": "CCN(CC)C(=O)C1CCCN(C(=O)NCC(c2ccccc2)c2ccccc2)C1", "note": "(stereo not drawn) [CBK156145]", "% of control remaining": 59.4789}, {"smiles": "OC(CNCc1cccs1)COc1cccc2c1CCCC2", "note": "(stereo not drawn) [CBK002239]", "% of control remaining": 106.582}, {"smiles": "O=C(NNc1ccccc1)c1c(O)c2ccccc2oc1=O", "note": "[CBK260878]", "% of control remaining": 100}, {"smiles": "O=C(Nc1ccccc1C(=O)O)c1cccc(S(=O)(=O)NCc2ccccc2)c1", "note": "[CBK261258]", "% of control remaining": 71.9043}, {"smiles": "COc1ccccc1-c1ccc(CNC(Cc2ccsc2)c2nccs2)cc1", "note": "(stereo not drawn) [CBK286315]", "% of control remaining": 83.8114}, {"smiles": "Cc1ccc(Nc2nc(N)nc(CN3CCCC3)n2)cc1", "note": "[CBK270163]", "% of control remaining": 106.522}, {"smiles": "c1ccc(CN2CCN(c3cncc(-c4cccs4)n3)CC2)nc1", "note": "[CBK065734]", "% of control remaining": 107.575}, {"smiles": "O=C(c1cc(F)c(F)cc1F)N1CCC2(CCN(Cc3cc(=O)[nH]c(=O)[nH]3)C2)C1", "note": "(stereo not drawn) [CBK132141]", "% of control remaining": 95.5884}, {"smiles": "COc1ccc(-c2ncc(OCc3cccs3)nc2N)c(OC)c1", "note": "[CBK145088]", "% of control remaining": 178.742}, {"smiles": "COc1ccccc1-c1nccnc1OCCc1c[nH]c2ccccc12", "note": "[CBK106807]", "% of control remaining": 116.691}, {"smiles": "CC(C)c1ccc(S(=O)(=O)Nc2ccon2)cc1", "note": "[CBK044584]", "% of control remaining": 121.096}, {"smiles": "CCNc1cncc(-c2cc(OC)c(OC)c(OC)c2)n1", "note": "[CBK065336]", "% of control remaining": 111.023}, {"smiles": "O=C(NCC1CCCN1)c1cc2cc(Cl)ccc2[nH]1", "note": "(stereo not drawn) [CBK115917C]", "% of control remaining": 89.7455}, {"smiles": "Cc1cc(C)nc(N(C#N)CC(=O)c2ccc(Br)cc2)n1", "note": "[CBK266562]", "% of control remaining": 165.488}, {"smiles": "Cc1cccc(CN(CCN)C(=O)NC2C[C@H]2c2ccccc2)n1", "note": "(stereo partly drawn) [CBK046220C]", "% of control remaining": 138.889}, {"smiles": "CCOC(=O)/C(=N/Nc1cccc(C)c1)c1csc(N)n1", "note": "[CBK261059]", "% of control remaining": 74.4932}, {"smiles": "COc1cc(/C=C2\\C(=O)NN(c3ccccc3)C2=O)ccc1OCCOc1cc(C)ccc1C", "note": "[CBK263947]", "% of control remaining": 132.011}, {"smiles": "CCCN1CC(NS(=O)(=O)c2cc(OC)c(C)cc2OC)CC1=O", "note": "(stereo not drawn) [CBK307036]", "% of control remaining": 160.592}, {"smiles": "CCOc1ccc(NC(=O)CCc2ncc(C(C)(C)C)o2)c(C)c1", "note": "[CBK306021]", "% of control remaining": 104.388}, {"smiles": "Cc1cccc(-c2csc3c(=O)[nH]c(N4CCC5(CC4)OCCO5)nc23)c1", "note": "[CBK291142]", "% of control remaining": 142.568}, {"smiles": "Cc1ccc2[nH]c(CN3CCC(O)C3)cc(=O)c2c1", "note": "(stereo not drawn) [CBK307690]", "% of control remaining": 109.922}, {"smiles": "CCOc1cc(/C=C2\\SC(=N)NC2=O)ccc1OC(=O)c1cccs1", "note": "[CBK265510]", "% of control remaining": 94.4177}, {"smiles": "Cc1cc(C)n(C(C)Cn2cncc2-c2cn(C)nc2C)n1", "note": "(stereo not drawn) [CBK281792]", "% of control remaining": 148.853}, {"smiles": "COc1ccc(-c2cc(C(=O)N[C@@H](C)c3ccccc3)cnc2-c2cccc(C)c2)cc1", "note": "[CBK036635]", "% of control remaining": 113.474}, {"smiles": "O=C(COc1cccc(Cl)c1)NNC(=S)Nc1ccccc1", "note": "[CBK267180]", "% of control remaining": 162.71}]}]}
